These are yes or no findings as the source states them, for the method shown. In cells and extracts the contact can be indirect. Some binding calls cover weakened binding; strength is not graded here.
T1: syntaxin 11 (human (endogenous in platelets)) (UniProt O75558)
T1 sequence: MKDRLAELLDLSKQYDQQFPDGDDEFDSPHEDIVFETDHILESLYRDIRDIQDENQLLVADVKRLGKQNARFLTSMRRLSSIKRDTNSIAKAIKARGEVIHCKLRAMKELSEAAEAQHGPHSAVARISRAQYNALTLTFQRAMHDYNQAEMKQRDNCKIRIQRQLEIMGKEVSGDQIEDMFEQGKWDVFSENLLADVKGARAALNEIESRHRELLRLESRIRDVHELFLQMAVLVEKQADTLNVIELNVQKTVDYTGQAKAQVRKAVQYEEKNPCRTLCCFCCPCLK

T2: VAMP8 (human (endogenous in platelets)), Q9BV40
T2 chain: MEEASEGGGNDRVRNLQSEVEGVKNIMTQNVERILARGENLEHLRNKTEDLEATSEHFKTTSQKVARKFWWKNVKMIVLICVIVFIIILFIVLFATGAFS


Tests used:
Experiment in all cases: co-IP; double-washed human platelets, resting or activated with 1 unit/ml thrombin; lysis buffer (2x) 40 mM Tris-HCl pH 7.5, 150 mM NaCl, 2 mM EDTA, 2 mM EGTA, 2% Triton X-100, 1% sodium deoxycholate; 2 ug primary antibody or nonspecific IgG overnight at 4 C; Protein A or G beads; Western blot
[1] = molecular target: SNAP23 (human (endogenous in platelets)) (UniProt O00161)
[2] = molecular target: T1, syntaxin 11 (human (endogenous in platelets))
[3] = molecular target: T2, VAMP8 (human (endogenous in …)); details: remark: other sources report otherwise

Row | binding [1] | binding [2] | binding [3] | Binder
1 | no binding | binds | – | syntaxin 8 (protein, UniProt Q9UNK0 1-236) MAPDPWFSTYDSTCQIAQEIAEKIQQRNQYERKGEKAPKLTVTIRALLQNLKEKIALLKDLLLRAVSTHQITQLEGDRRQNLLDDLVTRERLLLASFKNEGAEPDLIRSSLMSEEAKRGAPNPWLFEEPEETRGLGFDEIRQQQQKIIQEQDAGLDALSSIISRQKQMGQEIGNELDEQNEIIDDLANLVENTDEKLRNETRRVNMVDRKSASCGMIMVILLLLVAIVVVAVWPTN
2 | – | – | no binding | syntaxin 8, Q9UNK0 1-236 (protein) MAPDPWFSTYDSTCQIAQEIAEKIQQRNQYERKGEKAPKLTVTIRALLQNLKEKIALLKDLLLRAVSTHQITQLEGDRRQNLLDDLVTRERLLLASFKNEGAEPDLIRSSLMSEEAKRGAPNPWLFEEPEETRGLGFDEIRQQQQKIIQEQDAGLDALSSIISRQKQMGQEIGNELDEQNEIIDDLANLVENTDEKLRNETRRVNMVDRKSASCGMIMVILLLLVAIVVVAVWPTN

From PMC4340400
